Measurements as given in publication PMC12431657, “Discovery and mechanistic insights of dibenzoylmethane as a broad spectrum inhibitor of coronavirus” (PLOS Pathogens, 2025).
Where a name gives a salt, the structure may show the parent alone. Read-outs that look alike come from different tables or passages of the source. Out of some 3,300 compounds screened, about 95 (3%) showed an effect of 50% or more. The list shows a part of the results. Peptide text beside a SMILES is read from it.

System: HCoV-229E
Design: species or system Huh-7; HTS, protection from HCoV-229E induced cell death, luminescent cell viability (CellCounting-Lite 2.0), inhibition rate
Conditions: 24 h post infection, 1 h compound pre-incubation, 10 µM, inhibitor

Row | Structure (SMILES) | 229E Inhibition rate [%] | 229E Inhibition rate (229E Inhibition rate, 24 h) [%]
1 | Nc1nc2c(ncn2[C@@H]2O[C@H](CO)[C@@H](O)[C@H]2O)c(=O)[nH]1 [Guanosine] | 36.7 | –
2 | O=C(O)c1cccc2nc3ccccc3nc12 [Phenazine-1-carboxylic acid] | 16.2 | –
3 | CC(C)=CCC1=CC(=O)c2ccccc2C1=O [Deoxylapachol] | 8.4 | –
4 | COc1cc2c(cc1OC)[C@@H]1Cc3ccc(OC)c(OC)c3CN1CC2 [Tetrahydropalmatine (hydrochloride)] | – | 43.7
5 | O=c1[nH]cnc2c1ncn2[C@@H]1O[C@H](COP(=O)(O)OP(=O)(O)OP(=O)(O)O)[C@@H](O)[C@H]1O [Inosine-5'-triphosphate (trisodium salt)] | 8.5 | –
6 | C=C1C(=O)O[C@@H]2/C=C(/C)[C@@H](OC(C)=O)C/C=C(/C=O)C[C@@H](OC(=O)/C(C)=C/CO)[C@@H]12 [Eupalinolide O] | 19.5 | –
7 | O=c1ccc2ccc(O)cc2o1 [Umbelliferone] | 54.3 | –
8 | Cc1c(C)c2c(c(C)c1O)CC[C@@](C)(CCCC(C)CCCC(C)CCCC(C)C)O2 (stereo in doubt) [rel-α-Vitamin E] | 10.9 | –
9 | O=C(O)c1cccc(O)c1O [Pyrocatechuic acid] | 20.4 | –
10 | CCCCCCCCCCCCCCC(=O)OC [Methyl pentadecanoate] | 17.2 | –
11 | CC1(C)C(=O)[C@]2(C)CC[C@H]1C2 [(-)-Fenchone] | 23.7 | –
12 | C[C@H]1CCC/C=C/[C@@H]2C[C@H](O)C[C@H]2[C@H](O)/C=C/C(=O)O1 [Brefeldin A] | 19.7 | –
13 | Oc1ccc([C@H]2COc3cc(O)ccc3C2)cc1 [(-)-(S)-Equol] | 8.5 | –
14 | C[C@H]1CC[C@@]2(O)C(C)(C)[C@@H]3CC[C@@]2(C)[C@H]1C3 [Patchouli alcohol] | 8.8 | –
15 | CC1=C[C@H]2[C@@H](CC1)[C@H](C)CC[C@H]2[C@@H](C)C(=O)O [Dihydroartemisinic acid] | 10.7 | –
16 | CCC12C=CCN3CC[C@@]4(c5ccc(OC)cc5N(C)[C@H]4[C@@](O)(C(=O)OC)[C@@H]1OC(C)=O)[C@@H]32 (stereo partly shown) [Vindoline] | 10.2 | –
17 | CCCCCCCCCCCCCCCC(=O)OC [Methyl palmitate] | 12.6 | –
18 | O=C(O)c1cc(O)c2c(c1)C(=O)c1cccc(O)c1C2=O [Rhein] | 55.2 | –
19 | COC(=O)C1=CO[C@@H](O)[C@@H]2[C@@H](C)[C@@H](O)C[C@H]12 [Loganetin] | 13.9 | –
20 | O=C(O)c1ccccc1C(=O)O [Phthalic acid] | 24 | –
21 | O=c1cc(-c2ccc(O)cc2)oc2c([C@@H]3O[C@H](CO)[C@@H](O[C@@H]4O[C@H](CO)[C@@H](O)[C@H](O)[C@H]4O)[C@H](O)[C@H]3O)c(O)cc(O)c12 [4”-O-Glucosylvitexin] | 19 | –
22 | O=C[C@@H](O)[C@H](O)[C@@H](O)CO [L-Xylose] | 15.6 | –

Row | Structure (SMILES) | 229E Inhibition rate [%] | 229E Inhibition rate (229E Inhibition rate, 24 h) [%]
23 | CC(C)=CCc1c(O)cc2c(c1O)C(=O)C[C@@H](c1ccc(O)cc1)O2 [(2S)-6-Prenylnaringenin] | 22.5 | –
24 | CC1(C)Oc2cc3oc(=O)ccc3cc2C[C@@H]1O [Decursinol] | 0 | –
25 | COc1ccc2c(C)cc(=O)oc2c1O [7-Methoxy-4-methyl-coumarin-8-ol] | 12.9 | –
26 | O=C(OC[C@H]1O[C@@H](OC(=O)c2cc(O)c(O)c(OC(=O)c3cc(O)c(O)c(O)c3)c2)[C@H](OC(=O)c2cc(O)c(O)c(OC(=O)c3cc(O)c(O)c(O)c3)c2)[C@@H](OC(=O)c2cc(O)c(O)c(OC(=O)c3cc(O)c(O)c(O)c3)c2)[C@@H]1OC(=O)c1cc(O)c(O)c(OC(=O)c2cc(O)c(O)c(O)c2)c1)c1cc(O)c(O)c(OC(=O)c2cc(O)c(O)c(O)c2)c1 [Tannic acid] | 8.9 | –
27 | NC(N)=N[C@@H](CC(=O)O)C(=O)O [Guanidinosuccinic acid] | 40.7 | –
28 | O=C(O)/C=C/CCCCCCCCC(=O)O [Traumatic Acid] | 16 | –
29 | COc1cc(O)c2c(=O)c(O[C@@H]3O[C@H](CO[C@@H]4O[C@@H](C)[C@H](O)[C@@H](O)[C@H]4O)[C@@H](O)[C@H](O)[C@H]3O)c(-c3ccc(OC)c(O)c3)oc2c1 [Ombuoside] | 41.9 | –
30 | CC1(C)[C@H](OC(=O)c2ccccc2)CC[C@]2(C)C3=CC[C@@]4(C)[C@@H]5C[C@](C)(COC(=O)c6ccccc6)CC[C@]5(C)CC[C@]4(C)C3=CC[C@@H]12 [3,29-O-Dibenzoyloxykarounidiol] | 14 | –
31 | C=CC(C)(C)O[C@@H]1O[C@H](CO)[C@@H](O)[C@H](O)[C@H]1O [Crenulatin] | 42.9 | –
32 | COc1ccc2c3c1O[C@H]1C[C@@H](O)C=C[C@@]31CC[N+](C)([O-])C2 (stereo partly shown) [Galanthamine N-Oxide] | 11.6 | –
33 | COc1cccc2c1C(=O)c1c(O)c3c(c(O)c1C2=O)C[C@@](O)(C(=O)CO)C[C@@H]3O[C@H]1C[C@H](N)[C@H](O)[C@H](C)O1 [Doxorubicin (hydrochloride)] | 17.9 | –
34 | CCCCCCCCCCCO [1-Undecanol] | 9.6 | –
35 | CSCC[C@H](NC(C)=O)C(=O)O [N-Acetyl-L-methionine] | 14.8 | –
36 | O=C(O)/C=C/c1ccc2c(c1)OCO2 [(E)-3,4-(Methylenedioxy)cinnamic acid] | – | 30.2
37 | C=C1[C@@H](O)[C@]23C[C@@H]1[C@@H](O)C[C@H]2[C@@]12C4[C@@H]3C[C@@H]1[C@@](C)(CC[C@@H]2O)CN4CC [12-Epinapelline] | 8 | –
38 | COc1cc(CNC(=O)CCCC/C=C/C(C)C)ccc1O[C@@H]1O[C@H](CO)[C@@H](O)[C@H](O)[C@H]1O [Capsaicin β-D-glucopyranoside] | 12.5 | –
39 | CC1(C)O[C@H]2[C@H](O)CC(C(=O)O)=C[C@H]2O1 [3,4-O-Isopropylidene-shikimic acid] | 0 | –
40 | CN[C@@H]1[C@H](O[C@H]2[C@H](O[C@H]3[C@H](O)[C@@H](O)[C@H](N=C(N)N)[C@@H](O)[C@@H]3N=C(N)N)O[C@@H](C)[C@]2(O)C=O)O[C@@H](CO)[C@H](O)[C@H]1O [Streptomycin (sulfate)] | 8.9 | –
41 | CCCCCCCCC[C@H](O)CC(=O)CCc1ccc(O)c(OC)c1 [10-Gingerol] | 32.3 | –
42 | O=C(O)CC(O)C(=O)O (stereo not shown) [Malic acid] | 10.4 | –
43 | CC[C@@H](C)O [(R)-(-)-2-Butanol] | 20.6 | –
44 | C[C@]12CCC(=O)C=C1CC[C@@H]1[C@@H]2[C@@H](O)C[C@@]2(C)[C@H]1CC[C@]2(O)C(=O)CO [Hydrocortisone] | 25.8 | –

Full records from above.
O=C(OC[C@H]1O[C@@H](OC(=O)c2cc(O)c(O)c(OC(=O)c3cc(O)c(O)c(O)c3)c2)[C@H](OC(=O)c2cc(O)c(O)c(OC(=O)c3cc(O)c(O)c(O)c3)c2)[C@@H](OC(=O)c2cc(O)c(O)c(OC(=O)c3cc(O)c(O)c(O)c3)c2)[C@@H]1OC(=O)c1cc(O)c(O)c(OC(=O)c2cc(O)c(O)c(O)c2)c1)c1cc(O)c(O)c(OC(=O)c2cc(O)c(O)c(O)c2)c1 [Tannic acid] is listed with 229E Inhibition rate [%]: 8.9
C=C1[C@@H](O)[C@]23C[C@@H]1[C@@H](O)C[C@H]2[C@@]12C4[C@@H]3C[C@@H]1[C@@](C)(CC[C@@H]2O)CN4CC [12-Epinapelline] is listed with 229E Inhibition rate [%]: 8
NC(N)=N[C@@H](CC(=O)O)C(=O)O [Guanidinosuccinic acid] is listed with 229E Inhibition rate [%]: 40.7
O=C(O)CC(O)C(=O)O (stereo not shown) [Malic acid] is listed with 229E Inhibition rate [%]: 10.4

Later entries.

Row | Structure (SMILES) | 229E Inhibition rate [%] | 229E Inhibition rate (229E Inhibition rate, 24 h) [%]
45 | O=C(CCc1ccc(O)cc1)c1c(O)cc(O)cc1O[C@@H]1O[C@H](CO)[C@@H](O)[C@H](O)[C@H]1O [Phlorizin] | 10.5 | –
46 | CC(=O)C1=C(O)C=C2Oc3c(C(C)=O)c(O)c(C)c(O)c3[C@@]2(C)C1=O [(+)-Usnic acid] | 4.4 | –
47 | COC(=O)c1cccnc1 [Methyl nicotinate] | 15.3 | –
48 | CC(=O)c1ccc(O)cc1 [4-Hydroxyacetophenone] | 18 | –
49 | CC1(C)CC[C@]2(C(=O)O)CCC3=C([C@@H](CCl)C[C@@H]4[C@@]5(C)C[C@H](O)[C@H](O)[C@@](C)(C(=O)O)[C@@H]5CC[C@@]34C)[C@@H]2C1 [Tenuigenin] | 0 | –
50 | COc1c2ccoc2c(OCC=C(C)C)c2oc(=O)ccc12 [Phellopterin] | 19.4 | –
51 | c1ccc2c(Cc3c[nH]c4ccccc34)c[nH]c2c1 [3,3'-Diindolylmethane] | 15.5 | –
52 | OC1OC[C@@H](O[C@@H]2OC[C@@H](O[C@@H]3OC[C@@H](O[C@@H]4OC[C@@H](O)[C@H](O)[C@H]4O)[C@H](O)[C@H]3O)[C@H](O)[C@H]2O)[C@H](O)[C@H]1O (stereo partly shown) [Xylotetraose] | 21.7 | –
53 | CO[C@H]1c2cc(C(C)C)c(O)c(O)c2[C@@]23CCCC(C)(C)[C@@H]2[C@@H]1OC3=O [7-Methoxyrosmanol] | 21.1 | –
54 | Oc1ccc2c(c1)OCO2 [Sesamol] | 7.6 | –
55 | CCCCCCCCCCCCC [Tridecane] | 11.3 | –
56 | CC(=O)c1ccccc1N [2'-Aminoacetophenone] | 35.9 | –
57 | C[C@]12CC[C@H]3[C@@H](CC=C4C[C@@H](O)CC[C@@]43C)[C@@H]1CC[C@@H]2C(=O)CO [21-Hydroxypregnenolone] | 2.6 | –
58 | C=C1C(=O)O[C@@H]2/C=C(\C)CC/C=C(\C)CC[C@@H]12 [Costunolide] | 30.2 | –
59 | CC(C)[C@H](NC(=O)CN)C(=O)O [Glycyl-L-valine] (H-Gly-Val-OH) | 16.9 | –
60 | CC[C@@]1(O)C(=O)OCc2c1cc1n(c2=O)Cc2cc3ccccc3nc2-1 [Camptothecin] | 7.4 | –
61 | c1ccc(Nc2ccccc2)cc1 [Diphenylamine (hydrochloride)] | 13.5 | –
62 | COc1cc(CC(=O)C(=O)O)ccc1O [Vanilpyruvic acid] | 8.6 | –
63 | C[C@]12CC[C@@H]3c4ccc(O)cc4CC[C@H]3[C@@H]1CC[C@@H]2O [Estradiol] | 37.5 | –
64 | CC(C)(O)[C@H]1CC[C@@](C)([C@H]2CC[C@]3(C)[C@@H]2[C@H](O)C[C@@H]2[C@@]4(C)CC[C@H](O)C(C)(C)[C@@H]4[C@@H](O[C@@H]4O[C@H](CO)[C@@H](O)[C@H](O)[C@H]4O)C[C@]23C)O1 [Pseudoginsenoside RT5] | 13.1 | –
